These results are taken from PMC9500407, “Quantifying the transport of biologics across intestinal barrier models in real-time by fluorescent imaging” (Frontiers in Bioengineering and Biotechnology, 2022).

Molecules are shown by their SMILES.

The conditions of data set [1]: cited from earlier work. The source says: page 17: Supplementary Table 5. Direct statistical comparison of drug transport in Transwells, mono-and coculture tubules of 12 model drugs using an unpaired t-test.
The test system of data set [2] is Caco-2 monoculture tubules (chip). The data set can be described thus: Lucifer Yellow leakage after drug exposure, chip monoculture. As to conditions: 100 µM LY co-applied, after 2 h of exposure to 10 µM drug.
In data set [3] the test system is Caco-2:HT29-MTX E12 coculture tubules (chip). The data set can be described thus: Lucifer Yellow leakage after drug exposure, chip coculture. As to conditions: 100 µM LY co-applied, after 2 h of exposure to 10 µM drug.
In data set [4] the test system is Caco-2 monolayers (Transwell). In words: Lucifer Yellow leakage after drug exposure, Transwell. As to conditions: 100 µM LY co-applied, after 2 h of exposure to 10 µM drug, Caco-2 Transwell.

For the molecule `CC(C)NCC(O)COc1ccc(CC(N)=O)cc1` (stereo not shown) [Atenolol], the Transport route entry in data set [1] is “Paracellular”. The “Lucifer Yellow leakage (%) Chip Caco-2” value in data set [2] is reported as 0.02%. Besides, the “Lucifer Yellow leakage (%) Chip Caco-2:HT29-MTX E12” value in data set [3] is given as 0.01%. Besides, the “Lucifer Yellow leakage (%) Transwell” value in data set [4] was determined as 0.02%.
